Results as given in US20230250200A1, “IMPROVED CATALYSTS FOR INTERMOLECULAR CYCLOADDITION” ([…] PATENTS INC., priority 2022, published 2023).

Assay: Cycloaddition of butadiene with ethylene in 2 L autoclave, GC analysis of filtrate
[1] = 100 mg catalyst (Example 9), 60° C., 7.3 hours at 400 psig, 15.5 hours isolated, 1.2 hours at 400 psig
[2] = 416 mg catalyst (Example 8) in toluene, 60° C., 5 hours, ethylene 400 psig
[3] = catalyst solution of Example 7, 80° C., 5 hours, ethylene 365 psig
[4] = second batch, 300 mg catalyst, 60° C., 6.8 hours at 400 psig, 16 hours isolated, 1.2 hours at 400 psig
[5] = second batch, 600 mg catalyst, 60° C., 75 minutes, ethylene 400 psig
[6] = Comparative Example 1, catalyst solution of Example 3, 80° C., 3 hours, ethylene 400 psig

| Structure (SMILES) | cis-1,4-hexadiene in filtrate (GC) [1] [wt %] | vinylcyclobutane in filtrate (GC) [1] [wt %] | cis-1,4-hexadiene in filtrate (GC) [2] [wt %] | vinylcyclobutane in filtrate (GC) [2] [wt %] | cis-1,4-hexadiene in filtrate (GC) [3] [wt %] | vinylcyclobutane in filtrate (GC) [3] [wt %] | cis-1,4-hexadiene in filtrate (GC) [4] [wt %] | vinylcyclobutane in filtrate (GC) [4] [wt %] | cis-1,4-hexadiene in filtrate (GC) [5] [wt %] | vinylcyclobutane in filtrate (GC) [5] [wt %] | cis-1,4-hexadiene in filtrate (GC) [6] [wt %] | vinylcyclobutane in filtrate (GC) [6] [wt %] | vinylcyclobutane to cis-1,4-hexadiene ratio (Comparative Example 1, catalyst solution of Example 3, 80° C., 3 hours, ethylene 400 psig, ratio to 1) |
| --- | --- | --- | --- | --- | --- | --- | --- | --- | --- | --- | --- | --- | --- |
| C=CC=C.CCCCC(=Nc1c(C)cccc1C)c1cccc(C(CCCC)=Nc2c(C)cccc2C)n1.[Fe] [Catalyst 3, [2,6-Bis(1-(2,6-dimethylphenylimino)pentyl)pyridine] iron butadiene] | 0.21 | 80.34 | 0.49 | 83.02 | 1.33 | 82.57 | 0.26 | 61.30 | 0.26 | 61.30 |  |  |  |
| C=CC=C.CC(=Nc1c(C)cccc1C)c1cccc(C(C)=Nc2c(C)cccc2C)n1.[Fe] [Catalyst 1, [2,6-Bis(1-(2,6-dimethylphenylimino)ethyl)pyridine] iron butadiene, reference compound] |  |  |  |  |  |  |  |  |  |  | 2.13 | 77.66 | 36.5 |
